Record: PubChem BioAssay AID686937 (Drosophila RNAi Screening Center, 2013)
In all, the deposit lists about 23,000 reagents; shown is an unselected part of those with a known target gene and a result. 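Reduced-secretion tags in replicate 1 do not always agree with the z-scores; no criterion for assigning the tags was given.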 Names joined by + are all predicted targets of the reagent. The record does not give: the amount of reagent.

Test: 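Genes in the fly needed for secretion of protein constitutively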 (primary screen)
System: Drosophila S2 cells expressing secreted horseradish peroxidase
Reagents: long dsRNA against Drosophila genes
Timing: about 5.5 days (5 days dsRNA, then 12 h reporter induction)
Challenge: reporter expression induced after 5 days of dsRNA, read 12 h later; inducer not stated
Detection: 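After 5 days of dsRNA and 12 h of reporter induction, medium peroxidase read by chemiluminescence and scored as per-plate z-score; higher values mean more reporter released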
Direction: z-score: higher = more reporter secreted into medium

| gene knocked down | PubChem SID | z-score, replicate 1 | z-score, replicate 2 | z-score, replicate 3 | z-score, replicate 4 | phenotype, replicate 1 |
| --- | --- | --- | --- | --- | --- | --- |
| CG5810 | SID104195672 | 0.03 | 0.23 | – | – | – |
| CG5810 | SID104201544 | -0.18 | -5.44 | – | – | reduced secretion |
| CG6660 | SID104195879 | 0.14 | 0.33 | – | – | – |
| Aps (Aps pyrophosphatase) | SID104190421 | 0.31 | 0.23 | – | – | – |
| CG9330 | SID104190858 | 0.27 | -0.07 | – | – | – |
| CG3939 | SID104198290 | 0.48 | 0.41 | – | – | – |
| viaf (viral IAP-associated factor) | SID104190118 | -0.09 | -0.04 | – | – | – |
| baf (barrier to autointegration factor) | SID104182843 | 0.28 | -0.13 | – | – | – |
| defl (deflated) | SID104190092 | 1.13 | 0.75 | – | – | – |
| Brf (Brf RNA polymerase III subunit) | SID104193020 | 0.01 | 0.81 | – | – | – |
| Brf (Brf RNA polymerase III subunit) | SID104193958 | -0.21 | -0.96 | – | – | – |
| Brf (Brf RNA polymerase III subunit) | SID104193959 | 0.11 | -0.6 | – | – | – |
| CR31032 (pseudo) | SID104201921 | -0.25 | 0.64 | – | – | – |
| alien + CG17906 | SID104182433 | 0.5 | 0.53 | – | – | – |
| ddbt (deadbeat) | SID104187661 | 0.66 | 0.23 | – | – | – |
| FeCH (Ferrochelatase) | SID104196740 | -0.03 | 0.24 | – | – | – |
| CG17917 | SID104192362 | 0.31 | -0.42 | – | – | – |
| RhoGEF3 (Rho guanine nucleotide exchange factor 3) | SID104188058 | 0.6 | -0.01 | 0.03 | 0.41 | – |
| RhoGEF3 (Rho guanine nucleotide exchange factor 3) | SID104188143 | 0.31 | 0.29 | – | – | – |
| RhoGEF3 (Rho guanine nucleotide exchange factor 3) | SID104188144 | 0.28 | 0.24 | – | – | – |
| RhoGEF3 (Rho guanine nucleotide exchange factor 3) | SID104188145 | -0.02 | 0.26 | – | – | – |
| alpha-Est10 (alpha-Esterase-10) | SID104192405 | 0.23 | 0.32 | – | – | – |
| CG15046 | SID104199414 | 0.53 | 0.55 | – | – | – |
| CG6685 | SID104190487 | -0.01 | 0.19 | – | – | – |
| BomS3 (Bomanin Short 3) | SID104201197 | 0.53 | 1.28 | – | – | – |
| snRNP-U1-70K (small ribonucleoprotein particle U1 subunit 70K) | SID104183404 | 0.16 | 0.08 | 0.18 | 0.07 | – |
| snRNP-U1-70K (small ribonucleoprotein particle U1 subunit 70K) | SID104201645 | -1.17 | -1.55 | – | – | reduced secretion |
| Msp300 (Muscle-specific protein 300 kDa) | SID104180646 | -0.58 | -1.3 | – | – | – |
| Msp300 (Muscle-specific protein 300 kDa) | SID104180648 | 0.1 | 0.22 | – | – | – |
| Msp300 (Muscle-specific protein 300 kDa) | SID104180649 | 0.35 | 0.28 | – | – | – |
| Msp300 (Muscle-specific protein 300 kDa) | SID104180650 | -0.21 | 0.24 | – | – | – |
| Msp300 (Muscle-specific protein 300 kDa) | SID104182152 | 0.45 | 0.18 | – | – | – |
| Msp300 (Muscle-specific protein 300 kDa) | SID104183161 | 0.1 | 0.23 | – | – | – |
| Msp300 (Muscle-specific protein 300 kDa) | SID104183162 | 0.13 | 0.26 | – | – | – |
| Sur (Sulfonylurea receptor) | SID104183239 | 0.24 | 0.23 | – | – | – |
| Blos1 | SID104185762 | 0.3 | 0.35 | – | – | – |
| LysRS (Lysyl-tRNA synthetase) | SID104197616 | 0.35 | 0.1 | – | – | – |
| AsnRS (Asparaginyl-tRNA synthetase) | SID104181782 | -1.56 | -0.84 | – | – | reduced secretion |
| CG9815 | SID104184359 | -0.94 | -0.53 | – | – | – |
| CG30036 | SID104201114 | 0.56 | -0.21 | – | – | – |
| LManII (Lysosomal alpha-mannosidase II) | SID104181778 | 0.21 | 0.29 | – | – | – |
| Cyp6w1 (Cytochrome P450 6w1) | SID104184701 | -0.11 | 0.06 | – | – | – |
| CG17177 | SID104190049 | 0.55 | 0.27 | – | – | – |
| CG11178 | SID104199188 | 0.54 | 0.38 | – | – | – |
| CG10081 | SID104185754 | 0.33 | 0.38 | – | – | – |
| vimar (visceral mesodermal armadillo-repeats) | SID104184818 | -0.3 | -0.65 | – | – | – |
| p (pink) | SID104196352 | 0.08 | 0.28 | – | – | – |
| CG31064 | SID104194548 | 0.31 | 0.65 | – | – | – |
| CG31064 | SID104195733 | 0.34 | 0.09 | – | – | – |
| CG31064 | SID104195734 | 0.44 | 0.52 | – | – | – |
| CG31064 | SID104195735 | 0.27 | 0.21 | – | – | – |
| Mks1 (Meckel syndrome, type 1) | SID104199489 | 0.12 | 0.12 | – | – | – |
| Obp99c (Odorant-binding protein 99c) | SID104196054 | 0.35 | 0.25 | – | – | – |
| c(3)G (crossover suppressor on 3 of Gowen) | SID104195037 | -0.53 | -0.06 | – | – | – |
| Gmer (GDP-4-keto-6-deoxy-D-mannose 3,5-epimerase/4-reductase) | SID104184168 | 0.07 | 0.21 | – | – | – |
| vlc (vulcan) | SID104184714 | 0.03 | 0.15 | – | – | – |
| Gr98b (Gustatory receptor 98b) | SID104201358 | 0.01 | -0.18 | – | – | – |
| Taldo (Transaldolase) | SID104184112 | 0.28 | 0.26 | – | – | – |
| sol (small optic lobes) | SID104200379 | 0.16 | 0.06 | – | – | – |
| CG12016 + Dpm2 | SID104188016 | 0 | 0.33 | – | – | – |
| Fst (Frost) | SID104196283 | 0.97 | 0.64 | – | – | – |
| CG7328 | SID104190604 | 0.33 | 0.36 | – | – | – |
| CG5004 | SID104199721 | 0.6 | 0.74 | – | – | – |
| CG5004 | SID104199722 | 0.08 | -0.56 | – | – | – |
| CG5004 | SID104199915 | -2.87 | -1.99 | – | – | reduced secretion |
| CG5245 | SID104195542 | 0.15 | 0.14 | – | – | – |
| Rab32 | SID104184938 | 0.1 | – | – | – | – |
| Rab32 | SID104187314 | 0.31 | 0.22 | – | – | – |
| CG10700 | SID104181888 | 0.17 | 0.19 | – | – | – |
| CG42375 + CG9288 | SID104196260 | 0.32 | 0.63 | – | – | – |
| CG13197 | SID104186114 | 0.52 | 0.37 | – | – | – |
| CG8840 | SID104180505 | 0.28 | 0.26 | – | – | – |
| Hmg-2 (High mobility group protein 2) | SID104184346 | 0.23 | 0.1 | – | – | – |
| tHMG2 (testis-enriched HMG-box-containing protein 2) | SID104195974 | -0.01 | 0.15 | – | – | – |
| Cec-Psi1 (Cecropin pseudogene 1) | SID104201568 | 0.47 | 0.38 | – | – | – |
| CG4382 | SID104182535 | 0.37 | 0.36 | – | – | – |
| cic (capicua) | SID104194068 | -2.02 | -0.74 | – | – | reduced secretion |
| cic (capicua) | SID104195500 | -0.04 | -0.56 | – | – | – |
| cic (capicua) | SID104196710 | 0.3 | 0.22 | – | – | – |
| cic (capicua) | SID104201035 | 0.32 | 0.13 | – | – | – |
| rno (rhinoceros) | SID104188376 | 0.59 | 0.61 | – | – | – |
| CG34277 + CG31542 | SID104201261 | 1.58 | 0.23 | – | – | – |
